{
  "source": "patent US11950596B2",
  "about": "“Methods of protecting seeds from oxidants and microorganisms” (The United States of America, as represented by the …, priority 2020, dated 2024)",
  "tested_on": "A. flavus 3357",
  "assay": "Heat-sensitizing antimicrobial bioassay (MFC) in A. flavus 3357",
  "type": "cell-based, Aspergillus flavus",
  "settings": "57.5° C. mild heat, 90 seconds, PBS; listed as itraconazole",
  "description": "Antimicrobial bioassay: The heat-sensitizing effect of twenty-eight compounds (phenolic derivatives, alkyl gallates, other food additives) (0.025, 0.050, 0.075, 0.100, 0.200, 0.300, 0.400, 0.500, 0.600 or 0.700 mM) and six drugs/fungicides (1, 2, 4, 8, 16, 32, 64 ppm) (Table 2) were examined using A. flavus 3357. Two hundred μL of fungal spores (1.5×10^5 to 2.1×10^5 CFU) dispersed in PBS was transferred into individual microfuge tube (1.5 mL vol.), where (1) “control” tube contained DMSO only, while (2) “treatment” tube contained test chemical/drug at respective concentration. The tubes were then treated with mild heat (57.5° C.) or maintained at room temperature (RT; 22.0° C.) for 90 seconds. After treatments, entire volume (200 μL) from each microfuge tube was spread onto fresh recovery PDA, and plates were incubated at respective temperatures. Fungal growth/survival was monitored after 48 hrs of incubation.\nAs described in A. flavus 3357 test (see above), microfuge tubes were treated with mild heat (57.5° C.) or maintained at RT (22.0° C.) (90 seconds). […] The growth/survival of test microorganisms were monitored after 48 to 72 hrs of incubation. […]",
  "note": "Some entries share one result that the patent states for a list of compounds.",
  "data": [
    {"smiles": "CCC(C)n1ncn(-c2ccc(N3CCN(c4ccc(OCC5COC(Cn6cncn6)(c6ccc(Cl)cc6Cl)O5)cc4)CC3)cc2)c1=O", "note": "(stereo not shown) [Itraconazole]", "values": [
      {"measurement": "minimum fungicidal concentration (MFC; >99.999% fungal death)", "result": "above 64 μg/mL; ppm"}
    ]}
  ]
}
